From PMC4063170
These are yes or no findings as the source states them, for the method shown. Binding seen in cells or lysates may run through a third protein. Some binding calls cover weakened binding; strength is not graded here.

Chains of the proteins cited; added tags and fusions are not shown.
UniProt Q13547: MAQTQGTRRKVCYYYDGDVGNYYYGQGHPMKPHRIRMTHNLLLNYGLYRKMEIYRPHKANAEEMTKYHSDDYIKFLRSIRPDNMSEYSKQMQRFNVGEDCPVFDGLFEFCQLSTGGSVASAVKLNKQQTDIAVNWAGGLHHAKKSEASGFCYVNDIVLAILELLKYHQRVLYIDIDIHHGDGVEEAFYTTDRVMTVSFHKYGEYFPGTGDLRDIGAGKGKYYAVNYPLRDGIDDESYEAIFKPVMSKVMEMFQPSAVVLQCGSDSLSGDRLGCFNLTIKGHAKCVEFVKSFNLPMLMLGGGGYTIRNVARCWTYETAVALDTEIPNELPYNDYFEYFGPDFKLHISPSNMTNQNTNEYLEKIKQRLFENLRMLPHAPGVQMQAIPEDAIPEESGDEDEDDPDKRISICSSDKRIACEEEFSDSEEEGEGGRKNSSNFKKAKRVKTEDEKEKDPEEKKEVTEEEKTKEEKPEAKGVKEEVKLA
UniProt O94916: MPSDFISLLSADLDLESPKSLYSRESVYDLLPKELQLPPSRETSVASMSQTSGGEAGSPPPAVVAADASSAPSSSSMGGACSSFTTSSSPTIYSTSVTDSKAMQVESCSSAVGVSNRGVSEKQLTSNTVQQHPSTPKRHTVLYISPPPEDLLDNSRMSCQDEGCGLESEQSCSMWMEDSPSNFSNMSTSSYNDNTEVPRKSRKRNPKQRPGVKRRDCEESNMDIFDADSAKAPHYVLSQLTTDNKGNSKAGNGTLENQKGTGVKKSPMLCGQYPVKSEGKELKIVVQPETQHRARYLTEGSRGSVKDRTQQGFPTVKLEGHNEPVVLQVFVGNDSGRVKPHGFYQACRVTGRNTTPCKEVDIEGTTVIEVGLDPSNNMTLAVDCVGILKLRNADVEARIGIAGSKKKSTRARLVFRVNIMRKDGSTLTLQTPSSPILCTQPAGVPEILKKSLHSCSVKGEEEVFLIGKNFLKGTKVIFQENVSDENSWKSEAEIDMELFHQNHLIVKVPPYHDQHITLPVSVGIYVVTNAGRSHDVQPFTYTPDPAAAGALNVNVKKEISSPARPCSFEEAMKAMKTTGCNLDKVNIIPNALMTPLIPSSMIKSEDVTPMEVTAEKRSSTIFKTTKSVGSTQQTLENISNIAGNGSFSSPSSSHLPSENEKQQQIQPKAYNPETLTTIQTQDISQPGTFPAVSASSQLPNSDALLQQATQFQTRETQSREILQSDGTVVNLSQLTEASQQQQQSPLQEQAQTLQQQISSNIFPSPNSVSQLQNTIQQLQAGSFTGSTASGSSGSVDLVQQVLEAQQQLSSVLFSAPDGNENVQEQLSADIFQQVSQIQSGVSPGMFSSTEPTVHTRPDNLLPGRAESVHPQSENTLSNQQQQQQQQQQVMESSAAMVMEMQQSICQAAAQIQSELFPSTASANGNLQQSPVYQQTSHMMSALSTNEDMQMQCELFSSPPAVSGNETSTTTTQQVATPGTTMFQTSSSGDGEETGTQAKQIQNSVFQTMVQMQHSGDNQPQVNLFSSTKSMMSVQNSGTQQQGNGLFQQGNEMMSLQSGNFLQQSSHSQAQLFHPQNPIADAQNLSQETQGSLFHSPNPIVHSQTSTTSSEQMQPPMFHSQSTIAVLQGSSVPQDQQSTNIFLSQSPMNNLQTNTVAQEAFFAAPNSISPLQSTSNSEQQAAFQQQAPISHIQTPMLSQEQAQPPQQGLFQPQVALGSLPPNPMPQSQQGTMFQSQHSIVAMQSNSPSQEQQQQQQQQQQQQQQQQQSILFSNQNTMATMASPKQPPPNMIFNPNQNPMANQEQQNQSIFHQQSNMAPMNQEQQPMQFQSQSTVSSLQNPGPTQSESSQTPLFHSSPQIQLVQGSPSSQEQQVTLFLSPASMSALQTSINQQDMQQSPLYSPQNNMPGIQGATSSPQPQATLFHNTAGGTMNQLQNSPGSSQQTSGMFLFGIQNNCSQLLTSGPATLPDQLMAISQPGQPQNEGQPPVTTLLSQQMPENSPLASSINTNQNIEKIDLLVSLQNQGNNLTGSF

Legend:
[1] = target: HDAC1 (UniProt Q13547); test: co-IP; co-immunoprecipitation of TonEBP with HDAC1; data not shown, no details given
[2] = target: FLAG-tagged TonEBP (tonicity-responsive enhancer binding protein), wild type, c-form (human) (UniProt O94916); test: co-IP; coimmunoprecipitation analysis of TonEBP dimerisation, WT against DIM; data not shown, no details given

binding [1]: binds
binding [2]: binds
Substance: FLAG-tagged TonEBP (tonicity-responsive enhancer binding protein), wild type, c-form (from UniProt O94916 1-1531)
